{"source": "PubChem BioAssay AID1053208 (Peter MacCallum Cancer Centre, 2014)", "purpose": "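Find knock-downs that sensitise mouse osteosarcoma cells to doxorubicin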 (primary screen)", "cell system": "mouse osteosarcoma cells, early-passage culture from an engineered mouse model of fibroblastic bone tumour", "reagent": "siRNA pool against mouse genes, 40 nM", "time to read-out": "about 120 h (48 h before drug, then 72 h with drug)", "challenge": "doxorubicin 100 nM for 72 h, roughly 30-40% inhibitory dose", "read-out": "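Luminescent ATP signal taken as viability with or without 100 nM doxorubicin for 72 h; mean of two wells set against non-targeting siRNA and turned into robust z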", "direction": "viability z-score with doxorubicin: higher = more viable cells under doxorubicin; viability z-score without drug: higher = more viable cells with knock-down alone", "active means": "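Called active if knock-down leaves viability unchanged without drug (z within -2 to 2) but lowers it with doxorubicin (z at or under -2)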", "note": "In all, the deposit lists about 17,000 reagents; shown is a random part of them. Over the whole deposit, 788 (4.7%) are marked active. 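Calls rest on z-score classes alone; an extra cut-off of viability at most 70% of control was not applied to them.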 The numbers tell different reagents against one gene apart. Further read-outs or replicates are left out here."}
{"gene symbol": "Lysmd4", "pool no.": 1, "combined z-score class": "no change with or without drug", "viability z-score with doxorubicin": -0.11, "viability z-score without drug": -0.51, "outcome": "inactive"}
{"gene symbol": "Clic3", "pool no.": 1, "combined z-score class": "no change with or without drug", "viability z-score with doxorubicin": 0.45, "viability z-score without drug": 0.17, "outcome": "inactive"}
{"gene symbol": "Sphkap", "pool no.": 1, "combined z-score class": "high cell count without drug only", "viability z-score with doxorubicin": 0.22, "viability z-score without drug": 3.2, "outcome": "inactive"}
{"gene symbol": "Lgr5", "pool no.": 1, "combined z-score class": "no change with or without drug", "viability z-score with doxorubicin": -0.67, "viability z-score without drug": 1.18, "outcome": "inactive"}
{"gene symbol": "Cyp4a12b", "pool no.": 1, "combined z-score class": "no change with or without drug", "viability z-score with doxorubicin": 0.67, "viability z-score without drug": 0.84, "outcome": "inactive"}
{"gene symbol": "Tff1", "pool no.": 1, "combined z-score class": "high cell count with doxorubicin only", "viability z-score with doxorubicin": 2.92, "viability z-score without drug": 0.51, "outcome": "inactive"}

Limited to “viability z-score with doxorubicin”, for 3 of the entries above:
Clic3: 0.45
Sphkap: 0.22
Lgr5: -0.67

Next records:
{"gene symbol": "Xpo7", "pool no.": 1, "combined z-score class": "no change with or without drug", "viability z-score with doxorubicin": -0.67, "viability z-score without drug": 0.51, "outcome": "inactive"}
{"gene symbol": "Xpo7", "pool no.": 2, "combined z-score class": "no change with or without drug", "viability z-score with doxorubicin": -1.01, "viability z-score without drug": -1.85, "outcome": "inactive"}
{"gene symbol": "Asic3", "pool no.": 1, "combined z-score class": "no change with or without drug", "viability z-score with doxorubicin": 0.34, "viability z-score without drug": 0.51, "outcome": "inactive"}
{"gene symbol": "Chchd6", "pool no.": 1, "combined z-score class": "no change with or without drug", "viability z-score with doxorubicin": 1.57, "viability z-score without drug": 1.01, "outcome": "inactive"}
{"gene symbol": "Nxf1", "pool no.": 1, "combined z-score class": "low cell count with and without drug", "viability z-score with doxorubicin": -7.19, "viability z-score without drug": -7.93, "outcome": "inactive"}
{"gene symbol": "Or6c3b", "pool no.": 1, "combined z-score class": "no change with or without drug", "viability z-score with doxorubicin": -1.57, "viability z-score without drug": -1.52, "outcome": "inactive"}
{"gene symbol": "Tamalin", "pool no.": 1, "combined z-score class": "no change with or without drug", "viability z-score with doxorubicin": -0.45, "viability z-score without drug": -1.18, "outcome": "inactive"}
{"gene symbol": "Rps3a1", "pool no.": 1, "combined z-score class": "low cell count with and without drug", "viability z-score with doxorubicin": -7.31, "viability z-score without drug": -6.24, "outcome": "inactive"}
{"gene symbol": "Tbcd", "pool no.": 1, "combined z-score class": "no change with or without drug", "viability z-score with doxorubicin": -1.12, "viability z-score without drug": 0.51, "outcome": "inactive"}
{"gene symbol": "Csde1", "pool no.": 1, "combined z-score class": "low cell count with doxorubicin only", "viability z-score with doxorubicin": -2.14, "viability z-score without drug": -0.51, "outcome": "active"}
{"gene symbol": "Cyp26b1", "pool no.": 1, "combined z-score class": "no change with or without drug", "viability z-score with doxorubicin": 1.12, "viability z-score without drug": -0.51, "outcome": "inactive"}
{"gene symbol": "Hpcal1", "pool no.": 1, "combined z-score class": "no change with or without drug", "viability z-score with doxorubicin": -0.9, "viability z-score without drug": -1.18, "outcome": "inactive"}
{"gene symbol": "Mrgprd", "pool no.": 1, "combined z-score class": "no change with or without drug", "viability z-score with doxorubicin": 0.22, "viability z-score without drug": -0.84, "outcome": "inactive"}
